This is one part of the list. The data scatter; read single values as rough.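 Many melting curves are irregular; where none melted, Tm was taken as 64 °C.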
Compound: CCc1cnccc1C(=O)Nc1cc2c(cc1F)NC(=O)CC2
Assay: melting temperature shift (DMSO Tm minus MBE1-treated Tm) in cellular thermal proteome profiling; higher = less thermal stabilization by MBE1 (negative = stabilized by MBE1)
Conditions: A375

By UniProt entry, the sequences of proteins in these tests, tags left out. Where a name states a change or a piece, a line headed by the entry shows the natural chain unless it says otherwise.
UniProt O15151: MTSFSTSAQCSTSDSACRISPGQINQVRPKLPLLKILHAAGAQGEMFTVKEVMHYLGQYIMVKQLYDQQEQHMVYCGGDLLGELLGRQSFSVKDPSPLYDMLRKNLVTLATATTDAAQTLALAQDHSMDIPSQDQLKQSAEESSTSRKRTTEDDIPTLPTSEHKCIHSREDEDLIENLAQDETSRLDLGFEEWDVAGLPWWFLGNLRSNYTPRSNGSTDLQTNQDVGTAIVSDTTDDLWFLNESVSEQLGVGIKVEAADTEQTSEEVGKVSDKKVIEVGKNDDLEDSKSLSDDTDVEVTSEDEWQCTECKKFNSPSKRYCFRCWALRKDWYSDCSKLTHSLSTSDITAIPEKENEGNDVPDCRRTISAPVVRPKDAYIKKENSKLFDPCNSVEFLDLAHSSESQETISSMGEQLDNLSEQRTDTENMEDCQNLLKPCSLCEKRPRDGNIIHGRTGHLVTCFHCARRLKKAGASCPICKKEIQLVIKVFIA
UniProt O43157, whole entry: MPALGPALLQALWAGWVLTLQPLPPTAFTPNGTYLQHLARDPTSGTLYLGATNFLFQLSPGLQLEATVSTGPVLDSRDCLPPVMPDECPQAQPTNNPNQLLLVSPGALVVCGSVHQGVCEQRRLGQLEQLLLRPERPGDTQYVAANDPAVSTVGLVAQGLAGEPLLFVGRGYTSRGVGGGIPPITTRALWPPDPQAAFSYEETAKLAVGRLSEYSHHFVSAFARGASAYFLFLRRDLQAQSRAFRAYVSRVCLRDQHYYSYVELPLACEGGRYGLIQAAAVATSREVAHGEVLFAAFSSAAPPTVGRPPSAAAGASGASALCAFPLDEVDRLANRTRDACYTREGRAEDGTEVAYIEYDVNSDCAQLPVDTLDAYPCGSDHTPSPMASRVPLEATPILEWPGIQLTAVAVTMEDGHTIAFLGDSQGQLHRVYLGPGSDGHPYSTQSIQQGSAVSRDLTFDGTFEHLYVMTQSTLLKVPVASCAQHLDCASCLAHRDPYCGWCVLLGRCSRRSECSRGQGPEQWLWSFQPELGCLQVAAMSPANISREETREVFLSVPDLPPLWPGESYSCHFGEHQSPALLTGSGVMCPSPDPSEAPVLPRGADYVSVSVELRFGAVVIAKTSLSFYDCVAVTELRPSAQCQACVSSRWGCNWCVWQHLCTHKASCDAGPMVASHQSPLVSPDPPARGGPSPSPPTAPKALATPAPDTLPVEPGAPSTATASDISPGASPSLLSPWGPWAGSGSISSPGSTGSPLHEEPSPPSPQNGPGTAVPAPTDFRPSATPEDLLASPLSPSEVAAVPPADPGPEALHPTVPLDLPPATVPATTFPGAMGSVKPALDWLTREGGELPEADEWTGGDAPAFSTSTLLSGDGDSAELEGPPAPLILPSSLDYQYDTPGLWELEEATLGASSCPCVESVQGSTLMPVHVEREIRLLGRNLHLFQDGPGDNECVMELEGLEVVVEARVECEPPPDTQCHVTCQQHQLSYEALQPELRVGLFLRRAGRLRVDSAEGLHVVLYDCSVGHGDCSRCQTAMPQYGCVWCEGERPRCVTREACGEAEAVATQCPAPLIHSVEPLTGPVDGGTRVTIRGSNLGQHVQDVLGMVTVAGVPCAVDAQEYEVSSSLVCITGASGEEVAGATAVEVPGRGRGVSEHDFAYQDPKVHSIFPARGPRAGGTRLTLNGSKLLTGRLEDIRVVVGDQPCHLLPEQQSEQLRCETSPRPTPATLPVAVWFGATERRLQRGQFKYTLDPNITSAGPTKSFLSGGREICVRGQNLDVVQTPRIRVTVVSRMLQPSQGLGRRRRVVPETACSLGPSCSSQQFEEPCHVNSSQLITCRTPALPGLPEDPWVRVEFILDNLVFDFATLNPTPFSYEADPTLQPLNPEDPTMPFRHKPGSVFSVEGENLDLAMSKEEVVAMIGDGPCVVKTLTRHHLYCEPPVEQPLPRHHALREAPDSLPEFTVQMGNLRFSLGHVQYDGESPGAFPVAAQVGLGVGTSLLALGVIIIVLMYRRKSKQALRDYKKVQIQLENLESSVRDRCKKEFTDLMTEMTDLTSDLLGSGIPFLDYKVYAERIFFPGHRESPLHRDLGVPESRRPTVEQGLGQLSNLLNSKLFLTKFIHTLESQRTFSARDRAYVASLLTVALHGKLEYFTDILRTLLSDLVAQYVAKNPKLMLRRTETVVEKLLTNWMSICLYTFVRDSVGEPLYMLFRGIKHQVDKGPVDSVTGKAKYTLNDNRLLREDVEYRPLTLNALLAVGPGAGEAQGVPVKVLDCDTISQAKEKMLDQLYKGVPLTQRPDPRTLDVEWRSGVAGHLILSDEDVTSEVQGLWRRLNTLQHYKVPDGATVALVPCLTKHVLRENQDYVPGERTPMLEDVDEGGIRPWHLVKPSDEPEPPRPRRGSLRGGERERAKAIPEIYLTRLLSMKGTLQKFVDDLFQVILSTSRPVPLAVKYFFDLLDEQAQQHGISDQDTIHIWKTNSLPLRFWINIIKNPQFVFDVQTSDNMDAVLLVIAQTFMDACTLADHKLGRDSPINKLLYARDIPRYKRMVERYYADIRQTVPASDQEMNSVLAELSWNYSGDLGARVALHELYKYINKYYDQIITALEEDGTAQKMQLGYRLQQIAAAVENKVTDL
UniProt A6NDU8: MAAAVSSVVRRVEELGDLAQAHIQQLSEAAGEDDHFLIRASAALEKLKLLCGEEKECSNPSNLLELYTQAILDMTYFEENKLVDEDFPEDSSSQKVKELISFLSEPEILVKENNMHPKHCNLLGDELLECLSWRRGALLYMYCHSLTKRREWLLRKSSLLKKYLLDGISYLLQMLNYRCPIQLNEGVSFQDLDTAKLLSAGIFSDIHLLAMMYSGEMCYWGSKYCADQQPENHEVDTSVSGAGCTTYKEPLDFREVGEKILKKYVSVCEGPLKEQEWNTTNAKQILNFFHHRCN
UniProt O14607, whole entry: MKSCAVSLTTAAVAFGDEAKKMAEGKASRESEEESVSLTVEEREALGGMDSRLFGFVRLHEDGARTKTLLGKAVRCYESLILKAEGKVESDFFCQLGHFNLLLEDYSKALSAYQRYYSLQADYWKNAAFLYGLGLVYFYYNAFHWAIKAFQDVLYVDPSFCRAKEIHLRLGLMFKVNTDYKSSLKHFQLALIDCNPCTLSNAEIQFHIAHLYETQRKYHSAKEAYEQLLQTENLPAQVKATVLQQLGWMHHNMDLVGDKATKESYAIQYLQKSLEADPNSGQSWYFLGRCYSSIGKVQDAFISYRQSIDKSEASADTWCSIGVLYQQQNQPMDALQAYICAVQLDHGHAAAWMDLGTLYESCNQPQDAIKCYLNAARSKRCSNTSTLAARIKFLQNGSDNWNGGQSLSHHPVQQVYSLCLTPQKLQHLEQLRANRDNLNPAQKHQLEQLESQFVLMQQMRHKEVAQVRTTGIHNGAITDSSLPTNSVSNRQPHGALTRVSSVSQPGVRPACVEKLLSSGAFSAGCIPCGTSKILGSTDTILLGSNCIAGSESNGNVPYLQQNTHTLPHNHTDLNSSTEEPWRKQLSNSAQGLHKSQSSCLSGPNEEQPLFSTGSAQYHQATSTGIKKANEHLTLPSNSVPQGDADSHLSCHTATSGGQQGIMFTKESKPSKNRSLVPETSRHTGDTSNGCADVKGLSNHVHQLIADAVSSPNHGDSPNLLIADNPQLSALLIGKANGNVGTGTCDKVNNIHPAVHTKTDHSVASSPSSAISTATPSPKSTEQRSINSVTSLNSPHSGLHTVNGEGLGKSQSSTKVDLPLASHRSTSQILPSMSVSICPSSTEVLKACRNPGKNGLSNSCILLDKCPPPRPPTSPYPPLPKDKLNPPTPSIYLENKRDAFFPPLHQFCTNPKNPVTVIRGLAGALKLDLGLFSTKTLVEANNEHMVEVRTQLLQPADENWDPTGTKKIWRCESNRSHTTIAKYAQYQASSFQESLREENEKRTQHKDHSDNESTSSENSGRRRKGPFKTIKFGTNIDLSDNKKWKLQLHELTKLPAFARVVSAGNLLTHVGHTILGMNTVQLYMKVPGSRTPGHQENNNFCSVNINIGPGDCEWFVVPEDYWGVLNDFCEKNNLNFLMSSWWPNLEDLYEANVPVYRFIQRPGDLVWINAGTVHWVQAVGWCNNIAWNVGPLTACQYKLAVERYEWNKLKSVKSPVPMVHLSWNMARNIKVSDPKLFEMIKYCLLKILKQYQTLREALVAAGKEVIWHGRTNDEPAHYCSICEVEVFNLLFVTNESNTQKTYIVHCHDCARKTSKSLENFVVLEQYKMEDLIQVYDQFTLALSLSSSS
UniProt O15131, whole entry: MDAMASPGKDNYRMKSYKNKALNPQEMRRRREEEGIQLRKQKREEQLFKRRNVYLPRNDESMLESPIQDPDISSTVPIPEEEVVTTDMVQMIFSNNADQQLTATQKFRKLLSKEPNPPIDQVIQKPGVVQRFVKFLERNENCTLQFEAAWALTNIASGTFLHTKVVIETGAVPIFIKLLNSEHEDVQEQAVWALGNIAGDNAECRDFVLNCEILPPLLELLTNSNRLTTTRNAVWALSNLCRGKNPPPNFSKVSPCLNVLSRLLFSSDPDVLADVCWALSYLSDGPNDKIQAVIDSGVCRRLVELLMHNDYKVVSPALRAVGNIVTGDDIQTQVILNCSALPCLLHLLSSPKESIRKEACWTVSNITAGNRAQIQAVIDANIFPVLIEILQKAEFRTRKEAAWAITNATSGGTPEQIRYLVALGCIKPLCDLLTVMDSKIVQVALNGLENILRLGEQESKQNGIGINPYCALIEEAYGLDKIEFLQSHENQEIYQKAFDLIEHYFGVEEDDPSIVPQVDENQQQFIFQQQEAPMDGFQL
UniProt O00161: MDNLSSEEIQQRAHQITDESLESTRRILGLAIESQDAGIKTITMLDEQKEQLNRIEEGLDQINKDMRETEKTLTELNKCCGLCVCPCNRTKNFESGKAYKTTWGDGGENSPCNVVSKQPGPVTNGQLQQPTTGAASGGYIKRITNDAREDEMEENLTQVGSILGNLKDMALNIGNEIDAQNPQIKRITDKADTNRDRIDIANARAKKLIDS
UniProt O15056: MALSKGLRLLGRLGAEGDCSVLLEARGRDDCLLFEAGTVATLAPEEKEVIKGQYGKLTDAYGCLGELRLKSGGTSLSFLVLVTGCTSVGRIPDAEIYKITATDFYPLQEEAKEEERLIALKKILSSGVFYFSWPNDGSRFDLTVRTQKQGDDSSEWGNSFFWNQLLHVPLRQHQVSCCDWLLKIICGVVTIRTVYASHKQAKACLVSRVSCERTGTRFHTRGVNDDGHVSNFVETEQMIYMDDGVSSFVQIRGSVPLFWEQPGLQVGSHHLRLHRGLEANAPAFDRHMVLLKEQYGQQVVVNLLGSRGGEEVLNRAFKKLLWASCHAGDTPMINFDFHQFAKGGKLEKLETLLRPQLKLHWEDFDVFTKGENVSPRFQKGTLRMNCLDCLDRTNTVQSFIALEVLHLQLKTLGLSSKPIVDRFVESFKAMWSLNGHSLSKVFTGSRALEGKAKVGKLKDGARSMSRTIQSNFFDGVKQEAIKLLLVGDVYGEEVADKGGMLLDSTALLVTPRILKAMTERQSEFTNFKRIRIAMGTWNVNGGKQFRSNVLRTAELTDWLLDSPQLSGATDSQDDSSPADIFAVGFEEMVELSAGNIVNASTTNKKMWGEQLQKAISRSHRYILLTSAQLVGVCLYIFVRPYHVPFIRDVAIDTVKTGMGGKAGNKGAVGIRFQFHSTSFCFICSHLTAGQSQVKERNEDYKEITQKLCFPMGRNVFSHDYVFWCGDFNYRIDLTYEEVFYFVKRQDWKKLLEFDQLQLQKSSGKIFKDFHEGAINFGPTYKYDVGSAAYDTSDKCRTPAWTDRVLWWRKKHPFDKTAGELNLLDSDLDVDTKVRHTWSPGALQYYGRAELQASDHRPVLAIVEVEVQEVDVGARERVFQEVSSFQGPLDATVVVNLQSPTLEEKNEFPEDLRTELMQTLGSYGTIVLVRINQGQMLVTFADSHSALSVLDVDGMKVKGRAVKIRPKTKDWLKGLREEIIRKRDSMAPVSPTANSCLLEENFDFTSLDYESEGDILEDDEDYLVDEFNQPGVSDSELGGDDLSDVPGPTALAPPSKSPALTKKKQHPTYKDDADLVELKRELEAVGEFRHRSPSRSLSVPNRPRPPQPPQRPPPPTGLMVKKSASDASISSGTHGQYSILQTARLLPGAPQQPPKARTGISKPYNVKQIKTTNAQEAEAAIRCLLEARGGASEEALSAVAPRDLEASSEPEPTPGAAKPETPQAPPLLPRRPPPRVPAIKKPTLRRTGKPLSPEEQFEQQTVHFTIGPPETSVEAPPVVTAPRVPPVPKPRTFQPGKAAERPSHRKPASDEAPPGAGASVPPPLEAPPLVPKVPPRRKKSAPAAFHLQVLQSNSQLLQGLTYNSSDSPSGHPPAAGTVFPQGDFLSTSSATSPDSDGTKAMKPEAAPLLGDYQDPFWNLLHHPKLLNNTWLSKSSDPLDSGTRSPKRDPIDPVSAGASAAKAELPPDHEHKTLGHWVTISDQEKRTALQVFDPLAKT

Target	melting temperature shift (MBE1 concentration: 100 nM) [°C]	melting temperature shift (MBE1 concentration: 1 uM) [°C]
SOCS6 (UniProt O14544)	-0.489	
UniProt O15151		-4.81
SLC16A3 (UniProt O15427)		1.16
ANKRD28 (UniProt O15084)	1.83	0.556
UniProt O14933	0.361	-0.995
RCCD1 (UniProt A6NED2)	-0.262	0.671
UniProt O15211	-1.11	-1.6
UniProt O43157	0.695	-0.416
C5ORF51 (UniProt A6NDU8)	1.17	0.837
UniProt O00255	-0.256	0.0384
ZZEF1 (UniProt O43149)	0.122	1.04
UniProt O14607		-1.95
SCD (UniProt O00767)	-0.543	-4.32
PSMD3 (UniProt O43242)	-0.812	-0.222
UBXN8 (UniProt O00124)	0.631	0.442
UniProt O15131	-0.113	-0.922
PES1 (UniProt O00541)	-0.0384	-0.789
SNAP23 (UniProt O00161)		-2.43
UniProt O14647		-0.275
DCTN6 (UniProt O00399)	-3.24	-3.21
FANCG (UniProt O15287)		-1.76
EEF1E1 (UniProt O43324)	-0.64	-0.47
SYNJ2 (UniProt O15056)	-0.00941	-0.24
EEF2K (UniProt O00418)	-0.601	-0.189
ARPC1B (UniProt O15143)	-1.1	-0.704
UniProt O15083	0.788	
MAN2B1 (UniProt O00754)		-3.32
SCAMP1 (UniProt O15126)		-2.25

Whole records, quoted from the list. Values in the order: melting temperature shift (MBE1 concentration: 100 nM) [°C] | melting temperature shift (MBE1 concentration: 1 uM) [°C]
UniProt O43157 as listed: 0.695 | -0.416
ZZEF1 (UniProt O43149) as listed: 0.122 | 1.04

From the supplement of paper PMC12595434, “Development of retinoid nuclear receptor pathway antagonists through targeting aldehyde dehydrogenase 1A3” (iScience, 2025)
